Source: patent US11644474B2, “Use of macimorelin in assessing growth hormone deficiency in children” (Æterna Zentaris GmbH, priority 2020, dated 2023)

System: GH secretion
Assay: Diagnostic outcome of macimorelin GHST vs two standard GHSTs and investigator's assessment
Format: in vivo, human (paediatric subjects with suspected GHD)
Details: C3, 1 mg/kg
Procedure: The main features of Study P01 are summarized as follows: • Sequential cohorts of trial participants received macimorelin at ascending single oral doses: 0.25 mg/kg body weight in Cohort 1 (C1), 0.5 mg/kg body weight in Cohort 2 (C2), and 1 mg/kg body weight in Cohort 3 (C3). • For determination of macimorelin PK/PD: blood sampling at pre-dose, then 15, 30, 45, 60, 90, 120, and 360 minutes after the administration of macimorelin. • Two standard GHSTs (sGHSTs) had to be performed in a patient according to local practice. The related sGHST agents were considered as ‘background’ and not as IMPs. (Accepted test agents: insulin (insulin tolerance test or ITT), arginine, arginine/growth hormone releasing hormone (GHRH), clonidine, glucagon, L-dopa). Results
Peak GH values by GHD diagnosis were compared based on GHST results and investigator's assessment. Diagnostic characteristics of GH values (i.e., sensitivity, specificity, and Youden indices (non-weighted, weighted)) tested as cut-off points were listed with the most solid expression of diagnostic characteristics to be noted for C1 at a peak GH of 10.03 ng/mL, for C2 at a peak GH of 10.43 ng/mL, and for C3 at 17.13 ng/mL.
The investigator's assessment is based on local diagnostic standard practice. The macimorelin GHST was tested against a cut-off point calculated from the individual peak GH values.

[1] = cut-off approximately 17 ng/mL GH

CC(C)(N)C(=O)N[C@H](Cc1c[nH]c2ccccc12)C(=O)N[C@H](Cc1c[nH]c2ccccc12)NC=O [macimorelin]
ROC AUC of macimorelin GHST: 0.933 | agreement of single macimorelin GHST with combination of two sGHSTs and with PI assessment: 7 of 8 | Youden-index of macimorelin GHST [1]: 0.80 | sensitivity of macimorelin GHST [1]: 1.00 | specificity of macimorelin GHST [1]: 0.80
